The exact form of at least one protein or probe is not confirmed. At least one result comes from cells or an extract, where the contact may be indirect.
System: ADF-1L, Flag (Miichthys miiuy)
Assay: pull-down
Settings: pull-downs: 2 h at 25 C in MKC lysate; protein in a lysate after overexpression; protein details: Flag; label: biotin

Sequence | binding result
CCCTGCAGCTGCAGTTTCAT (double strand) [7SL-motif1] | binds
CTGAGCTGCAGTGGACTATG (double strand) [7SL-motif2] | binds
